Paper PMC4175184, “Structure and function of cohesin’s Scc3/SA regulatory subunit” (Febs Letters, 2014)

Target: T1, Flag-tagged S. cerevisiae Scc3 (S. cerevisiae) (UniProt P40541)
T1 sequence: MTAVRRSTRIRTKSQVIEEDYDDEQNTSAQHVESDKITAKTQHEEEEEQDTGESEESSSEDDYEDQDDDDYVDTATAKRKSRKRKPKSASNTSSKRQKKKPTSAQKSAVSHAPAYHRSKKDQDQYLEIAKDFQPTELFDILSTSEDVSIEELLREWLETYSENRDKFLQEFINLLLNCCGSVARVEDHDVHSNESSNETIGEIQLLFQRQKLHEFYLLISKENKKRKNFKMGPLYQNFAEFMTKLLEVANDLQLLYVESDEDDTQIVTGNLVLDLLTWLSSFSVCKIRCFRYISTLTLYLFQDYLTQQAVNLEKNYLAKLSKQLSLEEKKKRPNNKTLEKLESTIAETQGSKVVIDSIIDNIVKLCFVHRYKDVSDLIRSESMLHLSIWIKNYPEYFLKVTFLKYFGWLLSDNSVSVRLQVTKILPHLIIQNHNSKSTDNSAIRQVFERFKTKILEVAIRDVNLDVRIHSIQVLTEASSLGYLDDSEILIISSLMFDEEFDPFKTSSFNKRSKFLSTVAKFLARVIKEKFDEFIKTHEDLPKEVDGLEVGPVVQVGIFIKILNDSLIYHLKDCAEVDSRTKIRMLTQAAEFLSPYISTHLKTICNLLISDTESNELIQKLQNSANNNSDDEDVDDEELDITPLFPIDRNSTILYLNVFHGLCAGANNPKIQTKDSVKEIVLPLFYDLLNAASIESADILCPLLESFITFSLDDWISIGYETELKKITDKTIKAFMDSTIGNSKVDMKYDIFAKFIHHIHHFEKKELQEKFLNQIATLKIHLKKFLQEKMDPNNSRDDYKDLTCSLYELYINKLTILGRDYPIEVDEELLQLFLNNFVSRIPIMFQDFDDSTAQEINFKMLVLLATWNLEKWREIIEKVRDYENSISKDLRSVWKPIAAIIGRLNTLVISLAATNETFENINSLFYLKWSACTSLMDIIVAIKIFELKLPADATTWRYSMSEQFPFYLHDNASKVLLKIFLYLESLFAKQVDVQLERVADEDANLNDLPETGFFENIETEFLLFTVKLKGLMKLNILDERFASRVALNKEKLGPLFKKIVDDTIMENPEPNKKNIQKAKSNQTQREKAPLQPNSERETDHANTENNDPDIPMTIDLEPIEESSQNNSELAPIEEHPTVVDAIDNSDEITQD
Assay: pull-down; Flag-tagged Scc3 held on anti-Flag M2 affinity gel; 5 μM of each purified protein in 100 μl TAP buffer (50 mM Tris–HCl, 250 mM NaCl, 1 mM β-mercaptoethanol, pH 7.5), 2 h at 4 °C; SDS–PAGE and Coomassie staining (Fig. 2B); both purified

binding: binds
Substance: Smc1 ATPase head co-purified with Scc1 fragment (residues 310–566) (S. cerevisiae) (complex)

Results are given in words; binding and its absence hold for the method and conditions named. Binding can be weak; no strength is given. Where a sequence is shown, tags or fusion partners need not be part of it.
